Laboratory results: patent US7196104B2, “Thiazolyl urea compounds and methods of uses” (Amgen, Inc., priority 2000, dated 2007)
Some results were stated once for a whole list of compounds, not compound by compound.

Amino acid sequences for entries named in this document (tags omitted).
UniProt Q00535, whole entry: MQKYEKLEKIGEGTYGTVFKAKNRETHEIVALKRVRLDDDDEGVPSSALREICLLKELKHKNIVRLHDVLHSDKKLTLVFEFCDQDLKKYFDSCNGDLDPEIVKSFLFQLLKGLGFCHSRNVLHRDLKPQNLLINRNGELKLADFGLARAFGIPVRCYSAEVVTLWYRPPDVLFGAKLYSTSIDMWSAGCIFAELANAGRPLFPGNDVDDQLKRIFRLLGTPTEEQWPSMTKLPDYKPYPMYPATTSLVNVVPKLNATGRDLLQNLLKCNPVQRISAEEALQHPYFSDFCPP

Assays:
[1] = molecular target: T1, His-tagged cyclin 2/CDK2 (cyclin E2/CDK2) (Homo sapiens, UniProt P24941); assay: CDK2 kinase assay; assay type: biochemical; conditions: 1 nM enzyme, 1 μM Histone-H1, 25 μM ATP, 60 min at 25° C.
T1 construct: made in house; host or cells: Hi5 insect cells (baculovirus, pFastBacDual)

His-tagged p25/CDK5 = molecular target: T2, His-tagged p25/CDK5 (Homo sapiens, UniProt Q00535); assay: CDK5 kinase assay; assay type: biochemical; conditions: 1 nM enzyme, 1 μM Histone-H1, 25 μM ATP, 60 min at 25° C.
T2 construct: made in house; host or cells: Hi5 insect cells (baculovirus co-infection)

Row | Structure (SMILES) | IC50 [1] | IC50 (His-tagged p25/CDK5)
1 | O=C(Nc1cccc(C2=CCNCC2)n1)Nc1csc(-c2ccncc2)n1 [Example 299, 1-(2-Pyridin-4-yl-thiazol-4-yl)-3-(1′,2′,3′,6′-tetrahydro-[2,4′]bipyridinyl-6-yl)-urea] | < 0.5 µM | < 0.5 µM
2 | CC(C)(C)OC(=O)N1CCCCC1CNc1cccc(NC(=O)Nc2csc(-c3ccncc3)n2)n1 (centres unmarked) [Example 248, 2-({6-[3-(2-Pyridin-4-yl-thiazol-4-yl)-ureido]-pyridin-2-ylamino}-methyl)-piperidine-1-carboxylic acid tert-butyl ester] | < 0.5 µM | < 0.5 µM
3 | CN1CC=C(c2cccc(NC(=O)Nc3csc(-c4ccccc4)n3)n2)CC1 [Example 293, 1-(1-Methyl-1′,2′,3′,6′-tetrahydro-2[2,4]bipyridinyl-6-yl)-3-(2-phenyl-thiazol-4-yl)-urea] | < 0.5 µM | < 0.5 µM
4 | O=C(Nc1cc(C(=O)N2CCCCC2)ccn1)Nc1csc(Br)n1 [Example 310, 1-(2-Bromo-thiazol-4-yl)-3-[4-(piperidine-1-carbonyl)-pyridin-2-yl]-urea] | < 0.5 µM | < 0.5 µM
5 | CCN1CCN(c2cccc(NC(=O)Nc3csc(-c4ccccc4)n3)n2)CC1 [Example 322, 1-[6-(4-Ethylpiperazin-1-yl)-pyridin-2-yl]-3-(2-phenylthiazol-4-yl)urea] | < 0.5 µM | < 0.5 µM
6 | O=C(Nc1cccc(NCC2CCCCN2)n1)Nc1csc(-c2ccncc2)n1 (centres unmarked) [Example 249, 1-{6-[(Piperidin-2-ylmethyl)-amino]-pyridin-2-yl}-3-(2-pyridin-4-yl-thiazol-4-yl)-urea] | < 0.5 µM | < 0.5 µM
7 | CN1CC(COc2cccc(NC(=O)Nc3csc(-c4ccncc4)n3)n2)C1 [Example 332, 1-[6-(1-Methyl-azetidin-3-ylmethoxy)-pyridin-2-yl]-3-(2-pyridin-4-yl-thiazol-4-yl)-urea] | < 0.5 µM | < 0.5 µM
8 | CC1CCCN(Cc2cccc(NC(=O)Nc3csc(-c4ccccc4)n3)n2)C1 (centres unmarked) [Example 235, 1-[6-(3-Methyl-piperidin-1-ylmethyl)-pyridin-2-yl]-3-(2-phenyl-thiazol-4-yl)-urea] | < 0.5 µM | < 0.5 µM
9 | CN1CCC(COc2cccc(NC(=O)Nc3csc(-c4ccccc4)n3)n2)CC1 [Example 338, 1-[6-(1-Methyl-piperidin-4-ylmethoxy)-pyridin-2-yl]-3-(2-phenyl-thiazol-4-yl)-urea] | < 0.5 µM | < 0.5 µM
10 | O=C(Nc1cccc(Oc2ccc(CN3CCCC3)cc2)n1)Nc1csc(-c2ccccc2)n1 [Example 288, 1-(2-phenylthiazol-4-yl)-3-(6-p-pyrrolidin-1-ylmethylphenoxypyridin-2-yl)urea] | < 0.5 µM | < 0.5 µM
11 | O=C(Nc1cccc(N2CCN(c3ncccn3)CC2)n1)Nc1csc(-c2ccccc2)n1 [Example 324, 1-(2-phenylthiazol-4-yl)-3-[6-(4-pyrimidin-2-yl-piperazin-1-yl)pyridin-2-yl]urea] | < 0.5 µM | < 0.5 µM
12 | O=C(Nc1cccc(OCC2CCNCC2)n1)Nc1csc(-c2ccncc2)n1 [Example 329, 1-[6-(Piperidin-4-ylmethoxy)-pyridin-2-yl]-3-(2-pyridin-4-yl-thiazol-4-yl)-urea] | < 0.5 µM | < 0.5 µM
13 | CC(C)(C)OC(=O)N1CC(COc2cccc(NC(=O)Nc3csc(-c4ccccc4)n3)n2)C1 [Example 333, 3-{6-[3-(2-Phenyl-thiazol-4-yl)-ureido]-pyridin-2-yloxymethyl}-azetidine-1-carboxylic acid tert-butyl ester] | < 0.5 µM | < 0.5 µM
14 | COc1cc(-c2nc(NC(=O)Nc3cccc(CN4CCCCC4)n3)cs2)ccn1 [Example 343, 1-[2-(2-Methoxy-pyridin-4-yl)-thiazol-4-yl]-3-(6-piperdin-1-ylmethyl-pyridin-2-yl)-urea] | < 0.5 µM | < 0.5 µM
15 | O=C(Nc1cccc(OCCC2CCNCC2)n1)Nc1csc(C2CC2)n1 [Example 275, 1-(2-Cyclopropyl-thiazol-4-yl)-3-[6-(2-piperidin-4-yl-ethoxy)-pyridin-2-yl]-urea] | < 0.5 µM | < 0.5 µM
16 | CCN(CC)C(=O)c1ccnc(NC(=O)Nc2csc(-c3ccncc3)n2)c1 [Example 238, N,N-Diethyl-2-[3-(2-pyridin-4-yl-thiazol-4-yl)-ureido]-isonicotinamide] | < 0.5 µM | < 0.5 µM
17 | O=C(Nc1cccc(OCC2CCNCC2)n1)Nc1csc(-c2ccccc2)n1 [Example 337, 1-(2-Phenyl-thiazol-4-yl)-3-[6-(piperidin-4-ylmethoxy)-pyridin-2-yl]-urea] | < 0.5 µM | < 0.5 µM
18 | O=C(Nc1cc(C(=O)N2CCCCC2)ccn1)Nc1csc(-c2ccncc2)n1 [Example 236, 1-[4-(Piperidine-1-carbonyl)-pyridin-2-yl]-3-(2-pyridin-4-yl-thiazol-4-yl)-urea] | < 0.5 µM | < 0.5 µM
19 | O=C(Nc1cc(C(=O)N2CCCCC2)ccn1)Nc1csc(-c2ccccc2)n1 [Example 309, 1-(2-Phenyl-thiazol-4-yl)-3-[4-(piperidine-1-carbonyl)-pyridin-2-yl]-urea] | < 0.5 µM | < 0.5 µM

Row | Structure (SMILES) | IC50 [1] | IC50 (His-tagged p25/CDK5)
20 | O=C(Nc1csc(-c2ccncc2)n1)Nc1ncccn1 [Example 302, 1-(2-Pyridin-4-yl-thiazol-4-yl)-3-pyrimidin-2-yl-urea] | < 0.5 µM | < 0.5 µM
21 | O=C(Nc1cccc(CN2CCCCC2)n1)Nc1csc(Cl)n1 [Example 258, 1-(2-Chloro-thiazol-4-yl)-3-(6-piperidin-1-ylmethyl-pyridin-2-yl)-urea] | < 0.5 µM | < 0.5 µM
22 | O=C(Nc1cccc(OCC2CCNC2)n1)Nc1csc(-c2ccncc2)n1 (centres unmarked) [Example 274, 1-(2-Pyridin-4-yl-thiazol-4-yl)-3-[6-(pyrrolidin-3-ylmethoxy)-pyridin-2-yl]-urea] | < 0.5 µM | < 0.5 µM
23 | O=C(Nc1cccc(OCCC2CCNCC2)n1)Nc1csc(Br)n1 [Example 263, 1-(2-Bromo-thiazol-4-yl)-3-[6-(2-piperidin-4-yl-ethoxy)-pyridin-2-yl]-urea] | < 0.5 µM | < 0.5 µM
24 | CC(C)(C)c1cnc(-c2nc(NC(=O)Nc3cccc(OCCC4CCNCC4)n3)cs2)o1 [Example 341, 1-[2-(5-tert-Butyl-oxazol-2-yl)-thiazol-4-yl]-3-[6-(2-piperidin-4-yl-ethoxy)-pyridin-2-yl]-urea] | < 0.5 µM | < 0.5 µM
25 | CC1CCCN(Cc2cccc(NC(=O)Nc3csc(Cl)n3)n2)C1 (centres unmarked) [Example 308, 1-(2-Chloro-thiazol-4-yl)-3-[6-(3-methyl-piperidin-1-ylmethyl)-pyridin-2-yl]-urea] | < 0.5 µM | < 0.5 µM
26 | O=C(Nc1cccc(OCC2CCNCC2)n1)Nc1csc(Br)n1 [Example 267, 1-(2-Bromo-thiazol-4-yl)-3-[6-(piperidin-4-ylmethoxy)-pyridin-2-yl]-urea] | < 0.5 µM | < 0.5 µM
27 | O=C(Nc1cccc(NCCCO)n1)Nc1csc(Br)n1 [Example 295, 1-(2-Bromo-thiazol-4-yl)-3-[6(3-hydroxy-propylamino)-pyridin-2-yl]-urea] | < 0.5 µM | < 0.5 µM
28 | O=C(Nc1cccc(CN2CCCC2)n1)Nc1csc(-c2ccccc2)n1 [Example 317, 1-(2-phenylthiazol-4-yl)-3-(6-pyrrolidin-1-ylmethyl-pyridin-2-yl)urea] | < 0.5 µM | < 0.5 µM
29 | C[C@H]1CCCN(Cc2cccc(NC(=O)Nc3csc(-c4ccncc4)n3)n2)C1 [Example 250, (S)-1-[6-(3-Methyl-piperidin-1-ylmethyl)-pyridin-2-yl]-3-(2-pyridin-4-yl-thiazol-4-yl)-urea] | < 0.5 µM | < 0.5 µM
30 | O=C(Nc1cccc(OCCC2CCNCC2)n1)Nc1csc(-c2cccs2)n1 [Example 340, 1-[6-(2-Piperidin-4-yl-ethoxy)-pyridin-2-yl]-3-(2-thiophen-2-yl-thiazol-4-yl)-urea] | < 0.5 µM | < 0.5 µM
31 | CCN(CC)C(=O)c1cccc(NC(=O)Nc2csc(-c3ccccc3)n2)n1 [Example 325, Diethyl 6-[3-(2-phenylthiazol-4-yl)ureido]-pyridine-2-carboxamide] | < 0.5 µM | < 0.5 µM
32 | CC(C)N(Cc1cccc(NC(=O)Nc2csc(Br)n2)n1)C(=O)OC(C)(C)C [Example 282, {6-[3-(2-Bromo-thiazol-4-yl)-ureido]-pyridin-2-ylmethyl}-isopropyl-carbamic acid tert-butyl ester] | < 0.5 µM | < 0.5 µM
33 | CN1CC(COc2cccc(NC(=O)Nc3csc(-c4ccccc4)n3)n2)C1 [Example 335, 1-[6-(1-Methyl-azetidin-3-ylmethoxy)-pyridin-2-yl]-3-(2-phenyl-thiazol-4-yl)-urea] | < 0.5 µM | < 0.5 µM
34 | CN1CCC[C@H]1COc1cccc(NC(=O)Nc2csc(CS(=O)(=O)c3cccs3)n2)n1 [Example 342, 1-[6-(1-Methyl-pyrrolidin-2-ylmethoxy)-pyridin-2-yl]-3-[2-(thiophene-2-sulfonylmethyl)-thiazol-4-yl]-urea] | < 0.5 µM | < 0.5 µM
35 | CN1CCC(c2cccc(NC(=O)Nc3csc(-c4ccccc4)n3)n2)CC1 [Example 297, 1-(1′-Methyl-1′,2′,3′,4′,5′,6′-hexahydro-[2,4′]bipyridinyl-6-yl)-3-(2-phenyl-thiazol-4-yl)-urea] | < 0.5 µM | < 0.5 µM
36 | O=C(Nc1cccc(OCC2CCNCC2)n1)Nc1csc(Cl)n1 [Example 268, 1-(2-Chloro-thiazol-4-yl)-3-[6-(piperidin-4-ylmethoxy)-pyridin-2-yl]-urea] | < 0.5 µM | < 0.5 µM
37 | CC1CCCC(C)N1Cc1cccc(NC(=O)Nc2csc(-c3ccncc3)n2)n1 (centres unmarked) [Example 245, 1-[6-(2,6-Dimethyl-piperidin-1-ylmethyl)-pyridin-2-yl]-3-(2-pyridin-4-yl-thiazol-4-yl)-urea] | < 0.5 µM | < 0.5 µM
